Test [1] concerns the target Pba3-Pba4-FLAG-6His (chaperone from yeast cells) (S. cerevisiae (endogenous in yeast cells) | S. cerevisiae). Kind of test: co-IP; tandem affinity purification of Pba4-FLAG-6His from yeast extracts (WT, ump1Δ) on Ni-NTA and then anti-FLAG resin, 50 mM Tris-HCl pH 7.4, 150 mM NaCl, 4 °C, elution with FLAG peptide; SDS-PAGE and immunoblots for FLAG, α5, α6, α7. For orientation: Immunoblotting shows a protein as a band on a membrane.

Test [2] concerns the target Pba3-Pba4-HA (recombinant heterodimeric chaperone) (S. cerevisiae). Kind of test: co-IP; Pba3-Pba4-HA held on HA-resin; 50 μg purified test proteins added with SENP1 in 1 mL binding buffer (50 mM Tris-HCl pH 7.4, 150 mM NaCl, 5 mM EDTA, 1% Triton X-100), 1 h, 4 °C; three washes; elution with HA peptide; SDS-PAGE and Western blot; both purified.
For test [3] the target is unchanged. The test is described as follows: native gel or EMSA; 20 μg of proteins purified from E. coli mixed (added in sequence to Pba3-Pba4) in 100 μL 26S buffer with SENP1, 90 min, 4 °C, no washing; native PAGE and immunoblot with anti-α5 and anti-FLAG; both purified.

This note sets out measurements from paper PMC12109424.

Results are given in words; binding and its absence hold for the method and conditions named. Binding can be weak; no strength is given. For part of these data: In cells and extracts the contact can be indirect.

B1: proteasome subunit α5 (Pup2), from yeast cells (protein, UniProt P32379 1-260)
chain: MFLTRSEYDRGVSTFSPEGRLFQVEYSLEAIKLGSTAIGIATKEGVVLGVEKRATSPLLESDSIEKIVEIDRHIGCAMSGLTADARSMIEHARTAAVTHNLYYDEDINVESLTQSVCDLALRFGEGASGEERLMSRPFGVALLIAGHDADDGYQLFHAEPSGTFYRYNAKAIGSGSEGAQAELLNEWHSSLTLKEAELLVLKILKQVMEEKLDENNAQLSCITKQDGFKIYDNEKTAELIKELKEKEAAESPEEADVEMS
B1: in test [1], the binding entry is “binds”.

B2: proteasome subunit α5 (Pup2), recombinant (protein, UniProt P32379 1-260)
chain: MFLTRSEYDRGVSTFSPEGRLFQVEYSLEAIKLGSTAIGIATKEGVVLGVEKRATSPLLESDSIEKIVEIDRHIGCAMSGLTADARSMIEHARTAAVTHNLYYDEDINVESLTQSVCDLALRFGEGASGEERLMSRPFGVALLIAGHDADDGYQLFHAEPSGTFYRYNAKAIGSGSEGAQAELLNEWHSSLTLKEAELLVLKILKQVMEEKLDENNAQLSCITKQDGFKIYDNEKTAELIKELKEKEAAESPEEADVEMS
For the molecule B2, the binding entry in test [2] and in test [3] was “binds” in each case.
